Data reported in article PMC8335659.
Results are given in words; binding and its absence hold for the method and conditions named. Binding seen in cells or lysates may run through a third protein. Some binding calls cover weakened binding; strength is not graded here.

Sequences of proteins named here, by UniProt entry; tags and fusion partners are left off. A change or cut given only in a name is not applied to a line headed by its entry. A line that says so, or that is headed by a name, gives the form on record, which may keep a tag or linker.
GluA1^AAAA (P23818, form named): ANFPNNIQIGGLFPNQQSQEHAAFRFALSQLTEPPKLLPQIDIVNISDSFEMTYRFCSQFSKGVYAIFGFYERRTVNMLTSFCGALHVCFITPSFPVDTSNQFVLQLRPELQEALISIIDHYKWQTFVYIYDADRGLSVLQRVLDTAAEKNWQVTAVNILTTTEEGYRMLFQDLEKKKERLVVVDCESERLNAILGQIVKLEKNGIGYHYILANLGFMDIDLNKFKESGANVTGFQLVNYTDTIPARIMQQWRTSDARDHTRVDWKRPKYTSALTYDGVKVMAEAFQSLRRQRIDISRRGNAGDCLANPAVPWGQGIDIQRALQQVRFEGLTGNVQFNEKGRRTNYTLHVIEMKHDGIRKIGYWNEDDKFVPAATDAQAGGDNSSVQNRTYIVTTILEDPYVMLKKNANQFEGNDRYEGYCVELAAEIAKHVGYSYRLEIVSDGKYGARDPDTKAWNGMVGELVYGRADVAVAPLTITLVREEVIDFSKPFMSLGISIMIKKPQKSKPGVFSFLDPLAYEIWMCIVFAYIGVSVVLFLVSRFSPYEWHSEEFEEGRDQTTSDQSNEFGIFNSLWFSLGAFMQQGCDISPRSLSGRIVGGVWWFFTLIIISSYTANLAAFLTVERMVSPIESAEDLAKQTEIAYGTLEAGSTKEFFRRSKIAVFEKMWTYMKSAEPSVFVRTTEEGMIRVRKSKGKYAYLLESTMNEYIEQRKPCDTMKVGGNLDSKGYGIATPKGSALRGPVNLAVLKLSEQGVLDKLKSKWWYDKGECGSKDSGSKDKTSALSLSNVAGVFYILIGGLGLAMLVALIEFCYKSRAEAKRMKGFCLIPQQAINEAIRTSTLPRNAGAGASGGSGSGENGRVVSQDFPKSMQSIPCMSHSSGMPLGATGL
GluA1^AADD (P23818, form named): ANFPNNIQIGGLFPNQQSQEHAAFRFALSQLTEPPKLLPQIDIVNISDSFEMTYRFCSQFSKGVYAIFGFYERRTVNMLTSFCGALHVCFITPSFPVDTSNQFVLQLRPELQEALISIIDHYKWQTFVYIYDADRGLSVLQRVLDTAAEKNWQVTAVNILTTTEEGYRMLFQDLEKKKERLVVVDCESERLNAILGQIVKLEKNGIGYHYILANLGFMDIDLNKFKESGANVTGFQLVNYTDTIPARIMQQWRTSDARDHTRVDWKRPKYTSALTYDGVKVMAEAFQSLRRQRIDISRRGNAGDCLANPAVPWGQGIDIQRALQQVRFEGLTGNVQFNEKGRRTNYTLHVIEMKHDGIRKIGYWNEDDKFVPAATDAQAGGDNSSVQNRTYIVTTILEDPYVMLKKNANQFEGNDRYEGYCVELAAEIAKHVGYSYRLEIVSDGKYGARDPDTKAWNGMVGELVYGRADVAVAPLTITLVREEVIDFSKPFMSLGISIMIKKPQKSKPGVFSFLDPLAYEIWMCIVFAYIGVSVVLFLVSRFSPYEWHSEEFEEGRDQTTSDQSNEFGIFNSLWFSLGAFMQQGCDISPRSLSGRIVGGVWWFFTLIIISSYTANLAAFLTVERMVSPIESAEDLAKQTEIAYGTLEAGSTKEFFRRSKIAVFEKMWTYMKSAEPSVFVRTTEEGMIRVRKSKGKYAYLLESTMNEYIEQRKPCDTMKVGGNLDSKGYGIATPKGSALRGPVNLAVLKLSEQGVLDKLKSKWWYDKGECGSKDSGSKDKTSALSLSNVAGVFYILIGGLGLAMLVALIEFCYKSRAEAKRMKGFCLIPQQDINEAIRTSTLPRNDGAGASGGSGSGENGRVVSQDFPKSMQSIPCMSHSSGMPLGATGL
GluA1^DDAA (P23818, form named): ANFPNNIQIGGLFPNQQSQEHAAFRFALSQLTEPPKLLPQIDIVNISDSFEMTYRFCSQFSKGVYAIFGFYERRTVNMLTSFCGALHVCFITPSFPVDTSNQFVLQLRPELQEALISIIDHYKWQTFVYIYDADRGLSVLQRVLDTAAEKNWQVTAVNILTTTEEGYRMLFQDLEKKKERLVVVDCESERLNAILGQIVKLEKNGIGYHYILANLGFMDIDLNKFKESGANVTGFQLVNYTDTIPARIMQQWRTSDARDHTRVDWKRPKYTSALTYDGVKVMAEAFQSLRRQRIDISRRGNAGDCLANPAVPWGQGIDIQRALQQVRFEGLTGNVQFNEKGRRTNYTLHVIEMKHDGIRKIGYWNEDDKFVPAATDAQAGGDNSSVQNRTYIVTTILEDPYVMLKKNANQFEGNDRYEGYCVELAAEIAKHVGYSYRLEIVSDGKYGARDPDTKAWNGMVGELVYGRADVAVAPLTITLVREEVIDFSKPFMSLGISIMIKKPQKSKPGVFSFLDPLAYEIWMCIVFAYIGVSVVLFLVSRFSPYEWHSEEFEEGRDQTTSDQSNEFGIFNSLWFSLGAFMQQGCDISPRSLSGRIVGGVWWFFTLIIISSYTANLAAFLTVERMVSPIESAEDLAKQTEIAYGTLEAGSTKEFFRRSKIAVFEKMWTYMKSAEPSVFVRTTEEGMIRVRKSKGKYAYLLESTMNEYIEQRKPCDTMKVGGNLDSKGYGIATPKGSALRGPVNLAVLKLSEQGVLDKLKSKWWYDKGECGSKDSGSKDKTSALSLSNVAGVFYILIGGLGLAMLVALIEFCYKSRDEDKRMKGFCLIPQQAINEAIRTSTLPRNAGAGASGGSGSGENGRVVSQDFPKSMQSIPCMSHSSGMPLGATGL
GluA1^DDDD (P23818, form named): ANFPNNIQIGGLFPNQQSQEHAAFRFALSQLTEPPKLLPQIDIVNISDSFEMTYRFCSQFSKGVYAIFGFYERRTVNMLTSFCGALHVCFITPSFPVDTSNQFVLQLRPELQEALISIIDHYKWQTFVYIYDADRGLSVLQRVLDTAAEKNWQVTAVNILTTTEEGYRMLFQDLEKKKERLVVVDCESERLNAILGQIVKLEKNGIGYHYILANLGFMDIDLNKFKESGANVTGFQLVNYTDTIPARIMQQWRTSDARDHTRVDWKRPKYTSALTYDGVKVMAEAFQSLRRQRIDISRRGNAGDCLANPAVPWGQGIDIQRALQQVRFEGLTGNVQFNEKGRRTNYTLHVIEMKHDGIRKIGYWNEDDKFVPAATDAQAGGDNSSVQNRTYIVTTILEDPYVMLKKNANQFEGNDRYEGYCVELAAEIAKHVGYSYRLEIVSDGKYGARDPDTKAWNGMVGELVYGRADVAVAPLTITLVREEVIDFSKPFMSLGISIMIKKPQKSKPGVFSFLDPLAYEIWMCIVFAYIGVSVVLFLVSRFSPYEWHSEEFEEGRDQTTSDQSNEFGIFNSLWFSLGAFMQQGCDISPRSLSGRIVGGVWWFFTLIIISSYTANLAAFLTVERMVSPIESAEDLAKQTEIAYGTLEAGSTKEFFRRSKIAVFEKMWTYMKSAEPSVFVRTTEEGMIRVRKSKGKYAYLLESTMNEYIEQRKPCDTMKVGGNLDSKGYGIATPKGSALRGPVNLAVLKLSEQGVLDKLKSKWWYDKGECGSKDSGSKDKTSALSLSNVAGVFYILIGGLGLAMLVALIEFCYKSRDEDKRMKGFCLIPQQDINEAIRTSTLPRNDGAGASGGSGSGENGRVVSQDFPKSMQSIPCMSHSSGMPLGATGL

Tests used:
Assay in all cases: co-IP; lysates of HEK293 cells co-expressing STG, a GluA1 mutant and FLAG-tagged μ2 or μ3; immunoprecipitated with anti-GluA1 and protein G agarose, 4 °C; TNE buffer (50 mM NaCl, 10% NP-40, 20 mM EDTA, 0.1% SDS, 50 mM Tris HCl, pH 8.0); blots with anti-FLAG, anti-GluA1, anti-stargazin
GluA1^AAAA (mouse) = GluA1^AAAA (mouse) (UniProt P23818)
GluA1^AADD (mouse) = GluA1^AADD (mouse) (UniProt P23818)
GluA1^DDAA (mouse) = GluA1^DDAA (mouse) (UniProt P23818)
GluA1^DDDD (mouse) = GluA1^DDDD (mouse) (UniProt P23818)

Measured: binding

B1: stargazin (protein, UniProt O88602 1-323)
chain: MGLFDRGVQMLLTTVGAFAAFSLMTIAVGTDYWLYSRGVCKTKSVSENETSKKNEEVMTHSGLWRTCCLEGNFKGLCKQIDHFPEDADYEADTAEYFLRAVRASSIFPILSVILLFMGGLCIAASEFYKTRHNIILSAGIFFVSAGLSNIIGIIVYISANAGDPSKSDSKKNSYSYGWSFYFGALSFIIAEMVGVLAVHMFIDRHKQLRATARATDYLQASAITRIPSYRYRYQRRSRSSSRSTEPSHSRDASPVGVKGFNTLPSTEISMYTLSRDPLKAATTPTATYNSDRDNSFLQVHNCIQKDSKDSLHANTANRRTTPV
binds: all assays above
